Results reported in patent US6841684B2, “Imidiazoles having reduced side effects” (Allergan, Inc., priority 1997, dated 2005).
At least one read-out could not be matched to a standard name with certainty.

System: cynomolgus monkeys with sustained elevated IOP
Experiment: IOP lowering in conscious monkeys, eyes made hypertensive by argon laser photocoagulation
Assay type: in vivo, cynomolgus monkey
Details: single 50 μl eye drop, up to 6 hours
Text: Measurements of IOP were made in fully conscious female cynomolgus monkeys weighing 3-4 kg with sustained elevated IOP that was produced in the right eye by argon laser photocoagulation of the trabecular meshwork. Animals were usable for experiments 2 months following surgery. During the experiments, monkeys sat in specially designed chairs (Primate Products, San Francisco), and were fed orange juice and fruit as needed. A 30R model Digilab pneumatonometer (Alcon, Tex.) was used to measure IOP.
Twenty five μl of an anesthetic (proparacaine) was topically applied to each monkey before IOP measurements to minimize ocular discomfort due to tonometry. Two baseline measurements were made prior to instillation of the drugs, followed by periodic measurements up to 6 hours post-instillation. The test compounds were administered unilaterally as a single 50 μl eye drop; the contralateral eyes received an equal volume of saline.

## c1ccc2c(c1)CC[C@H](Cc1c[nH]cn1)C2 [Example J-2, (S)-4(5)-(1,2,3,4-tetrahydronaphthalen-2-ylmethyl)-1H-imidazole]
Ocular dose 0.3%
  Maximum % Decrease From Pretreatment Levels Hypertensive Eye (IOP): 27.3 ± 3.1%

## c1ccc2c(c1)CC[C@@H](Cc1c[nH]cn1)C2 [Example J-3, (R)-4(5)-(1,2,3,4-tetrahydronaphthalen-2-ylmethyl)-1H-imidazole]
Ocular dose 0.03%
  Maximum % Decrease From Pretreatment Levels Hypertensive Eye (IOP): 16.4 ± 4.7%
Ocular dose 0.3%
  Maximum % Decrease From Pretreatment Levels Hypertensive Eye (IOP): 26.5 ± 3.8%
